{"source": "patent US20090181931A1", "about": "“ANTIVIRAL ACTIVITY OF CIDOFOVIR AGAINST ONCOLYTIC VIRUSES” (priority 2008, published 2009)", "system": "H1299 cells", "assay": "XTT cell viability assay, CDV alone, H1299 cells", "type": "cell-based", "details": "CDV 0.32 μM, H1299, no virus, 7 days, Table 4B", "description": "Cells frozen in liquid nitrogen were thawed in water bath at 37° C., seeded at T25 flask, and cultured at 70-90% sub-confluent monolayer. Cells were detached with trypsin, and prepared suspension at a concentration of 1.0×10^4 cells/ml.\nCells were seeded in 96 well-plate (100 μL/well, 1000 cells/well), then cultured with 5% CO2 at 37° C.\n(§1) Viruses were diluted at MOI of 1 (OBP-301, OBP-202) in H1299 and 5 in A549 (PFU/cell). Medium in each well was removed, 150 μL of diluted virus solution was added to each well of the plate. 2 hours later, medium was aspirated and replaced with fresh medium containing 2% FCS and serially diluted CDV. Cells were incubated with 5% CO2 at 37° C. for 7 days after infection.\nas §1, with “0.1 (OBP-401) or 10 (ONYX-015)” for “1 (OBP-301, OBP-202)”, “H1299.” for “H1299 and 5 in A549 (PFU/cell).”, “50” for “150”, “infection. […]” for “infection.”\nMedium in each well of plate was removed, and 150 μL of mixture prepared above was added to each well. Plate was incubated with 5% CO2 at 37° C. for 4 hours, and then calculated absorbance at 450 nm and 690 nm. Protection was determined by the formula below: […]", "note": "Where “and” joins values, the source holds several entries; their conditions need not be identical. Equal values may be shown once. This continues a long series; more values of the same kind are listed elsewhere."}
{"smiles": "Nc1ccn(C[C@@H](CO)OCP(=O)(O)O)c(=O)n1.O.O", "note": "[CDV, 1-[(S)-3-hydroxy-2-(phosphonomethoxy)propyl]cytosine dihydrate]", "values": [{"measurement": "Relative cell viability Ave.", "value": 1.007}, {"measurement": "Relative cell viability", "setting": "single wells, dihydrate", "value": "1.003 and 1.008 and 1.020 and 0.998"}]}
